Results published in paper PMC2033742, “Comparison of ability of protein kinase C inhibitors to arrest cell growth and to alter cellular protein kinase C localisation” (British Journal of Cancer, 1995).

What was measured:
PKC-depleted A549 cells = assay: [3H]Tdr incorporation into PKC-depleted (bryostatin 1 pretreated) A549 cells; type: cell-based; settings: Homo sapiens, A549, read-out: IC50 for inhibition of [3H]Tdr incorporation
[1] = tested on: A549 lung carcinoma cells; assay: Cell growth inhibition by cell counting (Coulter Counter), A549; type: cell-based; settings: Homo sapiens; A549 and MCF-7 cells; read-out: IC50 values for growth arrest (stronger growth inhibitors)

| Compound | IC50 (PKC-depleted A549 cells) | IC50 [1] |
| --- | --- | --- |
| CN[C@@H]1C[C@H]2O[C@@](C)([C@@H]1OC)n1c3ccccc3c3c4c(c5c6ccccc6n2c5c31)C(=O)NC4 [Staurosporine, staurosporine] | 0.5 nM |  |
| CO[C@@H]1[C@H](N(C)C(=O)c2ccccc2)C[C@H]2O[C@]1(C)n1c3ccccc3c3c4c(c5c6ccccc6n2c5c31)C(=O)NC4 [CGP 41251] |  | < 1000 nM |
